40 compounds from article PMC12040169 (PLOS Biology, 2025) can be followed below.

This is one part of the list.

The assay relates to T1, CTL2-GFP (C. trachomatis L2/434/Bu, GFP-expressing).
T1 construct: L2/434/Bu, GFP-expressing
Further details: species or system HeLa; Intracellular C. trachomatis growth in HeLa cells, bulk GFP fluorescence relative to DMSO. As to conditions: bulk GFP, single well; 28.5 h, 10 µM; inhibitor.
As for `Cc1ccc(Nc2nc(N/N=C/c3cccc4ccccc34)nc(N3CCC(Cc4ccccc4)CC3)n2)cc1` [CBK262101], the “% of control remaining” value is listed as 100%.
For `Cn1cncc1CN1CCCC(c2cc3cccnc3[nH]2)C1` (stereo not shown) [CBK284948] the value was 125.466%; for `CSCCc1[nH]c(SCC(=O)Nc2cccc3ccccc23)nc1C` [CBK266097], 172.204%.
The result for `CCCN1CC(NC(=O)c2cc(COc3cccc(F)c3)[nH]n2)CC1=O` (stereo not shown) [CBK306912] reads 136.358%; that for `COc1ccc(S(=O)(=O)NCCCN2CCOCC2)c(C)c1C` [CBK266519], 155.301%.
For `c1csc(-c2ccn3c(n2)nc2ccccc23)c1` [CBK287976], the “% of control remaining” value turned out to be 100%.
Consider `Cc1cc(Cl)ccc1OCCCC(=O)Nc1sc2c(c1C(N)=O)CCCCCC2` [CBK265390], for which the “% of control remaining” value amounted to 104.602%.
The result for `O=S(=O)(c1ccc(C(F)(F)F)cc1)N1CCC2(CC1)OCCO2` [CBK044520] reads 135.379%; that for `Cc1cc(C)n(C2CCN(Cc3c(C)nc4ccccn34)CC2)n1` [CBK281614], 116.78%.
`Cc1nc(CCCn2cnc3nccnc3c2=O)sc1C` [CBK306962]: the “% of control remaining” value was determined as 166.041%.
In the case of `Nc1ccc2nc(CCCCCC(=O)O)sc2c1` [CBK016399], the “% of control remaining” value was found to be 94.4706%.
The result for `CCC(Sc1nc(C)cc(C)n1)C(=O)N1c2ccccc2Sc2ccccc21` (stereo not shown) [CBK263018] reads 81.5981%; that for `O=C(Cn1ccc2ccnc(-c3cccs3)c21)N1CCOCC1` [CBK284729], 160.948%; that for `Cc1ccc([N+](=O)[O-])cc1NC(=O)c1cc(S(=O)(=O)N(C)C)c(Cl)cc1Cl` [CBK266764], 115.644%.
Regarding `Cn1cc(Cl)c(C2CCCCCN2S(=O)(=O)c2ccc3[nH]c(=O)[nH]c(=O)c3c2)n1` (stereo not shown) [CBK286408], the “% of control remaining” value is on record as 127.829%.
The result for `Nc1ncnc(NCCC(c2ccccc2)c2ccccc2)c1[N+](=O)[O-]` [CBK267294] reads 118.756%; that for `Nc1ncc(-c2cccc3cccnc23)nc1N1CCOCC1` [CBK063383], 101.852%; that for `Cn1cc(-c2ncc(OCCn3cccc3)nc2N)cn1` [CBK145170], 122.668%.
For `c1ccc(-c2cn3ccnc3c(NCC3CCOCC3)n2)cc1` [CBK037356] the value was 186.206%; for `COc1ccc(OC)c(NC(=O)c2c(NCc3ccncc3)sc3c2CCC3)c1` [CBK266007], 139.837%; for `O=c1[nH]cc(-c2ccccc2)cc1CNCC1Cc2ccccc2O1` (stereo not shown) [CBK284772], 137.001%.
Consider `O=C(O)CSc1nc2ccc([N+](=O)[O-])cc2s1` [CBK262232], for which the “% of control remaining” value is recorded as 120.825%.
`COc1cc(CCc2cc(O)n3nc(C)c(-c4ccc(Cl)cc4)c3n2)on1` [CBK285681]: the “% of control remaining” value was 85.8847%.
Turning to `COc1cccc(CNc2ccc3c4c(cccc24)CC3)c1OC` [CBK269688], the “% of control remaining” value worked out at 126.252%.
The result for `CC1(C)OC(=O)CC1C(=O)N1CCCC(COc2ccccc2F)C1` (stereo not shown) [CBK282098] reads 135.071%; that for `O=C(CSc1nnc(-c2ccncc2)o1)c1ccccc1` [CBK070562], 58.7553%.
`COc1cccc(NC(=O)c2ccc(-c3ccsc3)nc2NCC2CC2)c1` [CBK106227]: the “% of control remaining” value is given as 94.2046%.
In the case of `O=S(=O)(NC(c1ccccc1)c1ccccc1)c1ccc(Cl)cc1` [CBK261759], the “% of control remaining” value is 96.809%.
In the case of `CCOc1ccc(NC(=O)c2c(O)c3ccccc3n(CC)c2=O)cc1` [CBK287771], the “% of control remaining” value is 125.345%.
As to `CC(C)Cc1[nH]nc(O)c1-c1ccccc1` [CBK075134], the “% of control remaining” value is 106.626%.
`COc1ccc(Cl)cc1NC(=O)NCCN1CCCCC1` [CBK268169]: the “% of control remaining” value is given as 114.229%.
Turning to `CC(C)[C@H](CO)Nc1nc(-c2ccc(F)c(Cl)c2)cnc1N` [CBK063949], the “% of control remaining” value is listed as 146.83%.
Consider `Cc1csc2c(C3CCCN(C(=O)c4ccnn4C)C3)nc(C)n12` (stereo not shown) [CBK285215], for which the “% of control remaining” value worked out at 129.12%.
Take `Cc1c(-c2ccnc(N3CCOCC3)n2)cnc2nc(-c3ccncc3)nn12` [CBK288551]: the “% of control remaining” value was found to be 139.193%.
The result for `CN1CC[C@]2(c3ccc4c(c3)nnn4C)CC[C@@H](NC(=O)Nc3cccc(C(F)(F)F)c3F)C[C@H]12` [CBK067410] reads 124.323%; that for `Cc1cc(C)cc(CNC(=O)N(CCCO)Cc2ccncc2)c1` [CBK304335], 87.7626%; that for `CCOCCCNC(=O)c1cccc(S(=O)(=O)N2CCCC2)c1` [CBK305934], 101.397%.
Regarding `Nc1nc(Cn2nc(-c3ccc(F)cc3)oc2=O)nc(Nc2ccc(F)cc2)n1` [CBK296742], the “% of control remaining” value was 133.265%.
Consider `CCc1ccc(-c2csc(NS(=O)(=O)c3cccc(C(=O)O)c3)n2)cc1` [CBK296726], for which the “% of control remaining” value is recorded as 133.639%.
For `CC(C(=O)Nc1c(F)cc(F)cc1OC1CCNCC1)c1ccccc1` (stereo not shown) [CBK045896T], the “% of control remaining” value amounted to 110.028%.
